A: 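Assay on Mycobacterium tuberculosis, filed only as a heat shock assay from Cornell; the read-out is not stated. The concentration is filed as 10 mM, unlikely as a test dose, so the dose is not known. Direction is inferred from retests: higher values go with stronger inhibition. Of about 69,000 compounds tested this way, about 930 (1.4%) reached 50% or more in at least one test.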
B: 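Primary screen of methionyl-tRNA synthetase; the read-out is not stated. Target: Methionyl-tRNA synthetase (putative), Leishmania donovani (UniProt E9BF75). The test concentration is not given. The values are filed as inhibition. About 68,000 compounds were tested under these conditions; 0.035% (about 24) showed 50% or more at least once.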
C: 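Whole-cell assay for inhibitors of Mycobacterium tuberculosis growth, labelled Cornell in the record; the read-out is not stated. The concentration is filed as 10 mM, unlikely as a test dose, so the dose is not known. Higher means stronger inhibition (inferred from two other growth screens of the library). About 53,000 compounds were tested under these conditions; 1.7% (about 900) showed 50% or more at least once.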

Protein sequences, listed by entry. Tags and fused reporters are not part of them.
UniProt E9BF75, entry or part of it: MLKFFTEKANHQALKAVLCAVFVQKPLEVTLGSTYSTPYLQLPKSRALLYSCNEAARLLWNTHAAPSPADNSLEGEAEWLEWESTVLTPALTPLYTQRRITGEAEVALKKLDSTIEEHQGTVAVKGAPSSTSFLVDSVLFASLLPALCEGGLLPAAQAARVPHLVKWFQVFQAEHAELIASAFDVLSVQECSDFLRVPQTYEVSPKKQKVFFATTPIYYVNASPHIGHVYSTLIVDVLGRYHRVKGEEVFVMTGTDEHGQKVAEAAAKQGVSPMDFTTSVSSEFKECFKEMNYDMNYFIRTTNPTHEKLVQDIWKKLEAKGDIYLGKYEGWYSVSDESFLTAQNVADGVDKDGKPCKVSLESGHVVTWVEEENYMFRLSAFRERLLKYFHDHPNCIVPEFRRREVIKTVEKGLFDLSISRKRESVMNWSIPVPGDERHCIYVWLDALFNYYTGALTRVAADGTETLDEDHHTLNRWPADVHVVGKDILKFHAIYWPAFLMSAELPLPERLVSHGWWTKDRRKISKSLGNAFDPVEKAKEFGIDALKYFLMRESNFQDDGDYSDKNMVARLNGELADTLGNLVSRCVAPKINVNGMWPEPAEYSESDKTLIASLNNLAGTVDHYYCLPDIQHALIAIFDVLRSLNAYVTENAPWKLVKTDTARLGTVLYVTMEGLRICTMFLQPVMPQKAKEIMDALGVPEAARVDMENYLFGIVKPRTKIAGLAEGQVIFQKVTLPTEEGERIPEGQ

All values are in %.
The record does not define 0% and 100%; most values in the screen are far below 50% and negative numbers occur (in some assays of this library far below -100).
Compounds were drawn at random from those tested, without regard to their results.
A dash means the value is not listed here; it may have been measured.

compound	A	B	C
Cc1nc(N)ncc1C(=O)N1CCCC1(C)C(=O)N(C)C (stereo not shown)	1.062%	16.83%	14.34%
[H][C@@]12CCN(C(=O)N(C)C)[C@]1([H])CCC(=O)N2CCOC	4.168%	-	-52.99%
COc1ccc(CN2C[C@@H]3CC[C@H](C2)N(S(C)(=O)=O)C3)cc1	-	10.3%	-
CCN1C(=O)C(C)(C)c2cc(NC(=O)c3ccco3)ccc21	29.03%	19.69%	-33.1%
CN(C)c1ccc(CNC(=O)NCCc2cccs2)cn1	-4.113%	17.09%	-36.79%
CCc1n[nH]c(C2CN(CCCS(C)(=O)=O)CCO2)n1 (stereo not shown)	-28.54%	3.152%	-34.33%
Cc1cccc(S(=O)(=O)NC(=O)c2ccc3c(c2)nnn3C)c1	-6.832%	14.64%	-
Cc1cccc(OC2CCN(c3ccc(C#N)cn3)CC2)n1	23.91%	7.023%	4.434%
O=C(NCCO)c1sc2ncccc2c1C1CN(C2CCCC2)CCO1 (stereo not shown)	-13.35%	17.55%	7.744%
Cc1nc[nH]c1CN1CCC2(CC1)CC(Nc1ncccn1)CO2 (stereo not shown)	-	11.38%	-
Cc1ccc(C2NC(=O)c3cc(C(C)C)sc3N2)cc1 (stereo not shown)	19.82%	18.92%	20.24%
Cn1cnnc1C1CCCN(C(=O)c2ccccc2Cl)C1 (stereo not shown)	13.45%	16.67%	-
Cn1cc(N2CC3(CCN(CC4CCOCC4)CC3)OCC2=O)cn1	-	9.544%	-
CN(Cc1nnn(CC2CC2)n1)C(=O)c1ccccc1	19.24%	0.2985%	-23.79%
Cn1nc2c(cc1=O)CN(c1nc3ccccc3s1)CC2	7.732%	-	-
COc1cccc(S(=O)(=O)CCNC(C)Cn2cccn2)c1 (stereo not shown)	-23.87%	6.873%	40.51%
Cc1cc(C)n(CC(=O)Nc2cc(-c3ccncc3)[nH]n2)n1	-5.336%	16.54%	-
Cc1nc(CN2CCCN(C(=O)c3sccc3C#N)CC2)cs1	-0.3529%	11.05%	-
Cc1cccc(N2CC[C@@H]3[C@@H](CO[C@H]3CNC(=O)c3ccco3)C2)n1	-	13.14%	-
Cc1cn2c(n1)CCC(NC(=O)c1ccc(S(C)(=O)=O)o1)C2 (stereo not shown)	-12.74%	0.5464%	-
O=C(O)C(F)(F)F.O=S(=O)(c1cccs1)N1CC[C@H](O)[C@@H]1Cc1ccncc1	-2.198%	-	-10.81%
O=C(C1CC=CC1)N1CCC2(CCN(Cc3ccccn3)C2=O)C1.O=C(O)C(F)(F)F (stereo not shown)	-18.77%	-	-
CC(NCCc1nccn1Cc1ccccc1)c1ccsc1 (stereo not shown)	-27.65%	6.044%	5.112%
Cc1cccc(CN2CCO[C@H]3[C@@H](OCc4ccncc4)CC[C@@H]32)n1	-	16.02%	-
CC(C)(C)n1ncc2c1NC(=O)CC2c1cccc(F)c1 (stereo not shown)	8.295%	9.48%	2.881%
COc1ccc2nnc(C(=O)NC3CCCC3)nc2c1	57.83%	5.263%	60.2%
CC(C)c1ncc2c(n1)CN(Cc1nc(-c3ccsc3)no1)CC2	28.32%	23.43%	-7.639%
O=C(O)C(F)(F)F.O=C(O)C(F)(F)F.[H][C@@]12CCCO[C@]1([H])[C@H](N1CCCC1)CN(c1ccc(C)nn1)C2	-26.82%	-	-32.75%
COc1ccc(-c2cc(CN)nc3ccnn23)cc1	-	9.951%	-
CCc1noc(C(C)N(C)CC(=O)Nc2ccc(Cl)c(C(F)(F)F)c2)n1 (stereo not shown)	-9.287%	14.37%	35.32%
Cc1cnc(CCNC(=O)C2CCN(S(=O)(=O)c3ccc(F)cc3)C2)s1 (stereo not shown)	-4.939%	4.658%	-38.63%
CCC[C@]12CN3C[C@](CCC)(CN(C1)C3c1[nH]c(=O)[nH]c(=O)c1C)C2=O (stereo partly shown)	-14.28%	6.233%	8.483%
CC(NCc1ccc(OCc2nccn2C)cc1)c1cccnc1 (stereo not shown)	-26.18%	12.32%	-5.367%
CCc1nnc2n1CC(CNCC1CCCC1)CC2 (stereo not shown)	-14.79%	1.344%	-
[H][C@]12CC[C@]([H])(CN(C(=O)c3ccc(F)c(Cl)c3)C1)N(Cc1ccccc1)C2	43.54%	-	39.76%
Cc1c(C2CCCN(C(=O)C3CC3)C2)n2c(nc1=O)CCC2.Cl (stereo not shown)	-9.507%	-	10.57%
O=C(CO)N1CC2(CCN(c3ccccc3)C2)C1	-23.24%	15.29%	-72.66%
O=C1CO[C@@H]2CN(Cc3ccncc3)C[C@H]2N1Cc1ccncc1	-	5.229%	-
O=C(COc1ccccc1F)NCCC(O)c1ccoc1 (stereo not shown)	31.32%	16.21%	23.03%
CC(C)NC(=O)NCc1cc(-c2cccc(Cl)c2)nn1C	-4.04%	9.951%	4.506%
CC(C)CNC(=O)NC(=O)C(C)Nc1cccc(CN2CCOC2=O)c1 (stereo not shown)	2.569%	9.227%	-
COc1cccc(OCC(=O)N(C)c2cccnc2N(C)C)c1	6.282%	12.77%	19.93%
Cc1c(NC(C)C(C)C)cccc1C(=O)NCc1cnn(C)c1 (stereo not shown)	5.833%	11.45%	2.864%
Cc1cc(=O)[nH]c(-n2nc(C)c(CCC(=O)NCc3ccco3)c2C)n1	61.79%	10.7%	0.9727%
CN1CCOC(CNCCCOc2ccc(C#N)cc2)C1 (stereo not shown)	-5.982%	-1.805%	15.52%
c1ccc(-c2noc(CCCN3CCCC3Cn3cccn3)n2)cc1 (stereo not shown)	9.814%	10.74%	-
CC(NS(C)(=O)=O)c1nc(-c2ccc(Br)cc2)no1 (stereo not shown)	-37.95%	7.494%	22.98%
[H][C@]12CCN(S(=O)(=O)c3ccc(C)cc3)C[C@@]1([H])OCCN(C(C)=O)C2	40.54%	-	-25.36%
COc1cccc(OCCc2cncc(C(N)=O)c2)c1	-15.26%	12.03%	29.58%
c1ccc(-n2nc(CNC3CCc4ncnn4C3)c3c2CCC3)cc1 (stereo not shown)	-14.27%	8.728%	-
Cc1ccc2c(c1)c(CNC(=O)C1CC(=O)N(C3CCCC3)C1)nn2C (stereo not shown)	-10.52%	3.261%	-
Cc1cc(NC(=O)N2CCCC2CN2CCOCC2)nn1C (stereo not shown)	8.077%	9.044%	-11.15%
Cc1csc(CN2CCC[C@]3(C[C@H](Oc4ccccn4)CO3)C2)n1.O=C(O)C(F)(F)F.O=C(O)C(F)(F)F	-5.757%	-	12.73%
Cc1ccccc1C(=O)NC[C@@H]1CCN(C(=O)c2cscn2)C[C@H]1O	-10.26%	5.575%	-
Cc1cc(CN2CCC=C(CN(C)C(=O)c3ccco3)C2)no1	-2.251%	15.12%	30.98%
CS(=O)(=O)NC1CCN(C(=O)NCCc2ccccn2)CC1	13.43%	2.857%	-
CS(=O)(=O)CC(=O)NCC1OCCc2cn(CC3CC3)nc21 (stereo not shown)	11.68%	12.77%	16.58%
O=C(O)C(F)(F)F.[H][C@]12CCN(c3cc(OC)ncn3)[C@@]1([H])C[C@@H](C(=O)N(C)C)O2	13.04%	-	20.66%
Cc1nccn1C1CCCN(C(=O)c2ccc3c(c2)OCCCO3)C1 (stereo not shown)	-14.19%	20.39%	8.029%
Cn1cc(NC(=O)N2CCN(Cc3cscn3)CC2)ccc1=O	-3.645%	6.183%	-
[H][C@@]12CCN(C(C)=O)C[C@@]1([H])[C@H](C(=O)NCc1ccco1)CCO2	-11.04%	-	-37.32%
COc1cc(N2CC[C@@H]3[C@@H](CC2)OCCN3CC2CC2)ncn1	-	6.234%	-
CC(C)N1C(=O)CC(N2CCN(c3ccc(F)cc3)CC2)C1=O (stereo not shown)	-6.722%	8.499%	-0.8538%
O=C(NCCn1cccn1)c1ccn(-c2cccc(F)c2)n1	-19.2%	17.71%	-25.92%
Cc1cnn(CC2CCN(CC(O)COc3ccc(F)cc3)CC2)c1 (stereo not shown)	-1.49%	4.53%	0.5777%
CC(CC(=O)O)CC(=O)Nc1sc2c(c1C(N)=O)CCc1ccccc1-2 (stereo not shown)	-4.566%	-0.271%	-19.89%
CCN(Cc1cnc(C)cn1)C1CCN(c2ccccc2)C1=O (stereo not shown)	-10.8%	9.218%	-15.65%
CCc1sc(-c2nnc(CNCCn3cc(C)cn3)o2)cc1C	6.449%	9.408%	69.26%

Source: ChEMBL document CHEMBL3988442, “University of Dundee, Small-Polar-MMV Screening Library” (2021).